Here are results for one molecule from US20200405889A1.

Sequences of proteins named here, by UniProt entry; tags and fusion partners are left off.
UniProt P41597: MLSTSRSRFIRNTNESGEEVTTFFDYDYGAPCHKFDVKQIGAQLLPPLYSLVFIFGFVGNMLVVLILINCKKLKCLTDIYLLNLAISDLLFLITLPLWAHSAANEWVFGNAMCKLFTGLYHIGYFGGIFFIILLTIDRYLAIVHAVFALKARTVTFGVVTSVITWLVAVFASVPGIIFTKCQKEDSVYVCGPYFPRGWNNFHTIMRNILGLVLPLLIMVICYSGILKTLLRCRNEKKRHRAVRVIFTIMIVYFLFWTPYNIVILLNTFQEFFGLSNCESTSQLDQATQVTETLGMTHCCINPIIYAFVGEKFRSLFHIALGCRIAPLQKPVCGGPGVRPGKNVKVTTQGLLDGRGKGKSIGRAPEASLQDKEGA

No constants are given. Whether binding was seen depends on the method and setting. Some binding calls cover weakened binding; strength is not graded here.

This assay concerns the target human CCR2 (hCCR2) (human) (UniProt P41597). Description: flow cytometry of cells digested from a human COPD lung sample.

As to LGTFLKC (Alexa Fluor 647 label; site of attachment not stated) [ECL1i-647 (Alexa Fluor 647)], the binding entry is “binds”.
